From the supplement of paper PMC10849652
This is one part of the list.

Chains of the proteins cited; added tags and fusions are not shown. Lines headed by an entry give the natural chain unless they say otherwise; changes in a name come on top.
UniProt Q92917: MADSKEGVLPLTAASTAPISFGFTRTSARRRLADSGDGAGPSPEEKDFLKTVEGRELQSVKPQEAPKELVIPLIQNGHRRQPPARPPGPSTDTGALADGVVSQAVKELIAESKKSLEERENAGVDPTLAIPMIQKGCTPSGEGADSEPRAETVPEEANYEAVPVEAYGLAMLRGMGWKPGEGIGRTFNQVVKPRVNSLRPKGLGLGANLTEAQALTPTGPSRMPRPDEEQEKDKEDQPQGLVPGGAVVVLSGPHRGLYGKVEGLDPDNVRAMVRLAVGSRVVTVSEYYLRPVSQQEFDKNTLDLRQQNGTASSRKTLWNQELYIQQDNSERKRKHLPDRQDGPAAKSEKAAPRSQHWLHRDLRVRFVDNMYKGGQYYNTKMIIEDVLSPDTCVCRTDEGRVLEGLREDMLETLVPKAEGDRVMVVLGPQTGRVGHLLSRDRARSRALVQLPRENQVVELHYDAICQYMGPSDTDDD
UniProt P62879, whole entry, looked up: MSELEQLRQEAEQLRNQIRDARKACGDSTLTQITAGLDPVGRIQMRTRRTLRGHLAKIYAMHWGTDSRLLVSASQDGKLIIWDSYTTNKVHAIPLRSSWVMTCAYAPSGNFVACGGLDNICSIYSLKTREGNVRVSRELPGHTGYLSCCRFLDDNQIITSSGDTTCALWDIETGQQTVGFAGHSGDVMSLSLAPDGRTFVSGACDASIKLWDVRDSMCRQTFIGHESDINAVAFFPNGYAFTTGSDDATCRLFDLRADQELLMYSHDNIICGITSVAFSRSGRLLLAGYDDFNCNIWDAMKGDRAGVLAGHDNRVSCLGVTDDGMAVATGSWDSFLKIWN
UniProt P04899, whole entry, looked up: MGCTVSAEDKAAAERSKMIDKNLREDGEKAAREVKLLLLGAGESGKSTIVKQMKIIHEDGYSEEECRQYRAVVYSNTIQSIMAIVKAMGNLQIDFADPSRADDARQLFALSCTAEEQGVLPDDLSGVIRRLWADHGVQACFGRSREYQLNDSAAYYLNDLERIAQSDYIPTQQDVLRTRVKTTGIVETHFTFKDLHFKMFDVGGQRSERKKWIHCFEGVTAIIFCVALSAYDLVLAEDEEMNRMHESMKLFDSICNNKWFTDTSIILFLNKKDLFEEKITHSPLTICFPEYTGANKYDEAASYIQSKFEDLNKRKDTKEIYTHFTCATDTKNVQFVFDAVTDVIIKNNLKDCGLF
UniProt Q8IXQ4: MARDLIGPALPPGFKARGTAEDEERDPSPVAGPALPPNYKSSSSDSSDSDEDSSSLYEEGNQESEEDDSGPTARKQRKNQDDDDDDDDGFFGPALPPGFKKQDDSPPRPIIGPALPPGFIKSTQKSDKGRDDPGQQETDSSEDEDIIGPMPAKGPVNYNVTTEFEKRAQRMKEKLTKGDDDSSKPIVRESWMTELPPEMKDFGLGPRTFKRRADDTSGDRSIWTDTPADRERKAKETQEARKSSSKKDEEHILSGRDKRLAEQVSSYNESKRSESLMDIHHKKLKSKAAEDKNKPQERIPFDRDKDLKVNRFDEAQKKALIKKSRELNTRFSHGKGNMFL
UniProt Q9Y5P6: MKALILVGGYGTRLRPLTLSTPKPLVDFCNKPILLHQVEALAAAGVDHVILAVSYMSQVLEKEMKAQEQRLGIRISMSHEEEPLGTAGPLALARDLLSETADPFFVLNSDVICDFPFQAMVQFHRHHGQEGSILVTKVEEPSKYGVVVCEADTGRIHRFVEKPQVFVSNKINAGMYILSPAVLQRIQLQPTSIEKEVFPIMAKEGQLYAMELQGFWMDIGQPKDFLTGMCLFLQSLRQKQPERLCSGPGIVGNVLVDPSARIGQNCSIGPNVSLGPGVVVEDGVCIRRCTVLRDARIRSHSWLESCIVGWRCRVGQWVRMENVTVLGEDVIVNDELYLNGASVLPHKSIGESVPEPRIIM
UniProt P36915, whole entry, looked up: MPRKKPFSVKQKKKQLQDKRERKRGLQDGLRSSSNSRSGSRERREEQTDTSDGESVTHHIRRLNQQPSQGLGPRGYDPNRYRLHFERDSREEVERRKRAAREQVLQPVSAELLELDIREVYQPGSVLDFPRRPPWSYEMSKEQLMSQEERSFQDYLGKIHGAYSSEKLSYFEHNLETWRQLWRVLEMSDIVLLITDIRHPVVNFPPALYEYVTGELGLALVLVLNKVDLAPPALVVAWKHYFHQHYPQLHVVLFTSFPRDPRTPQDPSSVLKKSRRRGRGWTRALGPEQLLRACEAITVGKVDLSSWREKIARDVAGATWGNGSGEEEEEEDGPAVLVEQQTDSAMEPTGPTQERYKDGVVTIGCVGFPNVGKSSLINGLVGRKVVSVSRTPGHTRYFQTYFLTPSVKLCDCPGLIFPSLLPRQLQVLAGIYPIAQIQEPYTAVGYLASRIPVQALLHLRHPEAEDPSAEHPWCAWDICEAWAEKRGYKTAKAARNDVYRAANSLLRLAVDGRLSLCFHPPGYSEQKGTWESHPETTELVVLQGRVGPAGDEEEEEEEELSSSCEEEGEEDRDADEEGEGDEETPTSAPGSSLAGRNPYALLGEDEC
UniProt P49840: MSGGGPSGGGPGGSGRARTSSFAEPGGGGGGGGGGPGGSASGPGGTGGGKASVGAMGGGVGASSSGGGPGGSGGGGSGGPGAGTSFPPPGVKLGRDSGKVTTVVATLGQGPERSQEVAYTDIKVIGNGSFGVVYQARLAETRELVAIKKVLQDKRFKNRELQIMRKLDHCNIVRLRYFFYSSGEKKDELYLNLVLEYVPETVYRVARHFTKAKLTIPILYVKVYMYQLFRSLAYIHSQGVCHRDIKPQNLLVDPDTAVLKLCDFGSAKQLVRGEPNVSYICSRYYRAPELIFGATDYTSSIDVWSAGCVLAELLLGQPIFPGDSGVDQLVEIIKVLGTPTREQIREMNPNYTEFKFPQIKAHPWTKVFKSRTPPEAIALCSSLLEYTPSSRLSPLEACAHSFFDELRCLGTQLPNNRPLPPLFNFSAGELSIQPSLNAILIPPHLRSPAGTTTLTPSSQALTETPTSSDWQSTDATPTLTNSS
UniProt O14908: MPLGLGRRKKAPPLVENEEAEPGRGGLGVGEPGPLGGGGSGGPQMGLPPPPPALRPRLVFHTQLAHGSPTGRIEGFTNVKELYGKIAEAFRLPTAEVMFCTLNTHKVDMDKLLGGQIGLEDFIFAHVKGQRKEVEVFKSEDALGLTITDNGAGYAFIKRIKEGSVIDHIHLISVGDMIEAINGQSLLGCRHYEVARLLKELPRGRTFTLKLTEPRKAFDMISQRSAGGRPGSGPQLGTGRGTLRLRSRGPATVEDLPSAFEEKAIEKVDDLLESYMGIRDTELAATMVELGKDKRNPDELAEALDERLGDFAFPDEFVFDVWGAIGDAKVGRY
UniProt Q9BYB4: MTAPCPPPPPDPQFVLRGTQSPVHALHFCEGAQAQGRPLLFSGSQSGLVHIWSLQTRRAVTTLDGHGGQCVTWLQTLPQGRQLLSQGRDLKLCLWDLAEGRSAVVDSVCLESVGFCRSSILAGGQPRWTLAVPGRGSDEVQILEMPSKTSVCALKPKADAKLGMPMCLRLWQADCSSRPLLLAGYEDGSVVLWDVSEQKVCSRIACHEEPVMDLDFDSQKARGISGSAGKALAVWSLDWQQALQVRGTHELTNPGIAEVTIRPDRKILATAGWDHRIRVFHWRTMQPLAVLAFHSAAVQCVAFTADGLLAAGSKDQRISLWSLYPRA
UniProt O75496: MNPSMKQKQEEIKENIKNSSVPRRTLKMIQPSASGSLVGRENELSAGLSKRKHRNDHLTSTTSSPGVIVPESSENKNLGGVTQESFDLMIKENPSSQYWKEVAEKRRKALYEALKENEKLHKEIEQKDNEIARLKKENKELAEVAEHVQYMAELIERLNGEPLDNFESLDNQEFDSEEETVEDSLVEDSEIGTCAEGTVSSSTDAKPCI
UniProt O60547: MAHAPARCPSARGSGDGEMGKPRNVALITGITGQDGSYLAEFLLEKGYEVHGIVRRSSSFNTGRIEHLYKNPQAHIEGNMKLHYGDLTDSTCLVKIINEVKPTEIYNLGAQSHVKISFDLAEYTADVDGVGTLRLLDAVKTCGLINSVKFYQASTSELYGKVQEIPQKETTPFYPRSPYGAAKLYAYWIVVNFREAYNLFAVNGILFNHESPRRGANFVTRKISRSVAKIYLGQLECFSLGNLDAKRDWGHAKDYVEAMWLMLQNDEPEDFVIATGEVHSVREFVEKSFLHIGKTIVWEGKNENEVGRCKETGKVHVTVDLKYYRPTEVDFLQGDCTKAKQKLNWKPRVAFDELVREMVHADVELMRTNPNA
UniProt Q13098: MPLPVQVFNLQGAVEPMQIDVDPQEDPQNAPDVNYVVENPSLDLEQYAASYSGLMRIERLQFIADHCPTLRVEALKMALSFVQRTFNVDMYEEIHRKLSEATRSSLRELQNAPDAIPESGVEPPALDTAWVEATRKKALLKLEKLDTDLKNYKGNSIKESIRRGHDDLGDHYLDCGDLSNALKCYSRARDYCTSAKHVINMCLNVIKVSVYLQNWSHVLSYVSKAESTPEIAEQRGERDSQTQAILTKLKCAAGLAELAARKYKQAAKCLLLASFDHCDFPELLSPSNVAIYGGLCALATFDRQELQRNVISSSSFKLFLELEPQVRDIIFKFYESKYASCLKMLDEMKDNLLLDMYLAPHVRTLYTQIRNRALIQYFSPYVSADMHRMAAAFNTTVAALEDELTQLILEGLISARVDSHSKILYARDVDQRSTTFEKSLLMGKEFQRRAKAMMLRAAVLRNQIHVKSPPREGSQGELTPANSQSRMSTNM
UniProt P46926: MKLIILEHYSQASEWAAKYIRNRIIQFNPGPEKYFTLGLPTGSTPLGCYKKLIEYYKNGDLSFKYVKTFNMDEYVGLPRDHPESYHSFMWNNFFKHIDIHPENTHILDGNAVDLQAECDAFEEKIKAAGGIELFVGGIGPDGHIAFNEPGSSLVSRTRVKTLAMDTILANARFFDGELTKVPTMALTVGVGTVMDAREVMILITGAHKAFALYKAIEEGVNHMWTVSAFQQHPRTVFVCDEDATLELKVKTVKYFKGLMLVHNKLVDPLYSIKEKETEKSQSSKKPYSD
UniProt Q9Y248: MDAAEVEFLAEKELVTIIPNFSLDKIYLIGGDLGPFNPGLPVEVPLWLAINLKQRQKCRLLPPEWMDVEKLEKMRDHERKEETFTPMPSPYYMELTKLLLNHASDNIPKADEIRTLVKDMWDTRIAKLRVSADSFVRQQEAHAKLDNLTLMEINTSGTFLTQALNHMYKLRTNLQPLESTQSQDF
UniProt Q96EK6: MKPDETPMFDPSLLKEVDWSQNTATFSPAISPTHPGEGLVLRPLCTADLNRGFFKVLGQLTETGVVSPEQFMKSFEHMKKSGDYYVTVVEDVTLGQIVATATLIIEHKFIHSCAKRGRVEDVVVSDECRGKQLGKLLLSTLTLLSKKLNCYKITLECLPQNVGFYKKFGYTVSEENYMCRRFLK
UniProt Q9HC38: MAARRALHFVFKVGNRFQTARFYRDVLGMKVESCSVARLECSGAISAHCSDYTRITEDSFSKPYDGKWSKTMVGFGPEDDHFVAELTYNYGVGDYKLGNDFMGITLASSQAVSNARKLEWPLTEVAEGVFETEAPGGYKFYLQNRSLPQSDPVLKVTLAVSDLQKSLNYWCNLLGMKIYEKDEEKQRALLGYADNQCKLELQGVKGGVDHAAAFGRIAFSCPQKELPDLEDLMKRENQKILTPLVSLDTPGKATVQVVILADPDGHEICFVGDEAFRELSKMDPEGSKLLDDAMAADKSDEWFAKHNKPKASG
UniProt Q9UHW5, whole entry, looked up: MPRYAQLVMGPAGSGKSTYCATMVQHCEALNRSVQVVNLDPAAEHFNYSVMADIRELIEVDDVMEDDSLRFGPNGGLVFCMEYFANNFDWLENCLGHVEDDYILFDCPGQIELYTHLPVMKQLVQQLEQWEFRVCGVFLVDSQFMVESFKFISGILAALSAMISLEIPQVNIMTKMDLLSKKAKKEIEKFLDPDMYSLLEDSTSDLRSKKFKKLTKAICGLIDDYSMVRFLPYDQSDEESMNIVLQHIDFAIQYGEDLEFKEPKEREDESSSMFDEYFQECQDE
UniProt Q9NS18: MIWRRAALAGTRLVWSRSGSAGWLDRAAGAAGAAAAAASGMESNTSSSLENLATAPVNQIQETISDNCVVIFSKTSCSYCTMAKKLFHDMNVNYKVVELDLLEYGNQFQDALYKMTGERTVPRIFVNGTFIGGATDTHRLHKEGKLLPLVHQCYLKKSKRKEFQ
UniProt Q12849: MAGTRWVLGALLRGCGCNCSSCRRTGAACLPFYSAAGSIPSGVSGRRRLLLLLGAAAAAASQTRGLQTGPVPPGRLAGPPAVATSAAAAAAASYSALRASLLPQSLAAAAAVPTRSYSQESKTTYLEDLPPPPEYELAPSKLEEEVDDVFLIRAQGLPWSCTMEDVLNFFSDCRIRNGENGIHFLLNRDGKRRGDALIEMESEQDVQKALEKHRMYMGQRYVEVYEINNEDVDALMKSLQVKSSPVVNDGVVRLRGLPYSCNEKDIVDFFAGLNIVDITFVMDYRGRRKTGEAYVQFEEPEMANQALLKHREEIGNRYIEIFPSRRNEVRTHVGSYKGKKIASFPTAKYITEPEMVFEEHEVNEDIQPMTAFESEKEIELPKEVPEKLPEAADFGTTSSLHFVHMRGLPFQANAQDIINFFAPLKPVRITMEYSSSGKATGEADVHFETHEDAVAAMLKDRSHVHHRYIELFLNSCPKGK

Each target was assayed with CC1=NC(=CC=C1)C2=C(N=C(N2)C(C)(C)C)C3=CC4=NC=CN=C4C=C3 (assay: log2 fold change, soluble protein after heating vs DMSO (PISA); higher = thermal stabilisation; K562 cells, 10 uM, 30 min; active = over 0.2 and 3.5 SD of the protein, either way, in both replicates (recomputed)).
Method in brief: (§1)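 K562 cells at 2×10^6 cells/mL were treated with 10 μM compound for 30 min. Aliquots were heated for 3 min across 48°C-58°C, pooled, and extracted in PBS with 0.5% NP-40 at 4°C; soluble protein was the supernatant after 21,000xg for 90 min. Soluble protein was quantified by TMTpro 16plex LC-MS/MS with channel sums equalised, and reported as log2 fold change in thermal stability against DMSO controls, with values from duplicates.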
GPAT3 (UniProt Q53EU6) was tested, and the log2 fold change was inactive: -0.015.
GK (UniProt P32189) was tested, and the log2 fold change was inactive: -0.01.
In the case of GLYR1 (UniProt Q49A26), the log2 fold change is reported as inactive: -0.06.
With GPATCH11 (UniProt Q8N954) the log2 fold change was inactive: 0.1.
In the case of GPKOW (UniProt Q92917), the log2 fold change is reported as inactive: 0.055.
GNB1 (UniProt P62873) was tested, and the log2 fold change was inactive: -0.012.
In the case of GINS1 (UniProt Q14691), the log2 fold change is reported as inactive: 0.052.
With GNB2 (UniProt P62879) the log2 fold change was inactive: -0.018.
With GNAI2 isoform 4 (UniProt P04899) the log2 fold change was inactive: -0.046.
With GPALPP1 (UniProt Q8IXQ4) the log2 fold change was inactive: -0.06.
GMPPB isoform 2 (UniProt Q9Y5P6) was tested, and the log2 fold change was inactive: 0.057.
GNB4 (UniProt Q9HAV0) was tested, and the log2 fold change was inactive: -0.049.
For GPHN isoform 2 (UniProt Q9NQX3), the log2 fold change was inactive: -0.002.
With GNL1 (UniProt P36915) the log2 fold change was inactive: 0.036.
In the case of GSK3A (UniProt P49840), the log2 fold change is reported as inactive: 0.021.
For GPAT4 (UniProt Q86UL3), the log2 fold change was inactive: -0.004.
With GIPC1 (UniProt O14908) the log2 fold change was inactive: 0.003.
For GNB1L (UniProt Q9BYB4), the log2 fold change was inactive: 0.012.
GMNN (UniProt O75496) was tested, and the log2 fold change was inactive: 0.005.
GMDS (UniProt O60547) was tested, and the log2 fold change was inactive: 0.017.
In the case of GPS1 isoform 7 (UniProt Q13098), the log2 fold change is reported as inactive: 0.054.
For GINS4 (UniProt Q9BRT9), the log2 fold change was inactive: 0.04.
For GM2A (UniProt P17900), the log2 fold change was inactive: -0.077.
For GLRX5 (UniProt Q86SX6), the log2 fold change was inactive: -0.178.
In the case of GINS3 (UniProt Q9BRX5), the log2 fold change is reported as inactive: 0.012.
GNPDA1 (UniProt P46926) was tested, and the log2 fold change was inactive: 0.005.
In the case of GMEB2 (UniProt Q9UKD1), the log2 fold change is reported as inactive: -0.066.
With GPN1 isoform 5 (UniProt Q9HCN4) the log2 fold change was inactive: -0.006.
GPR89A (UniProt B7ZAQ6) was tested, and the log2 fold change was inactive: 0.09.
With GINS2 (UniProt Q9Y248) the log2 fold change was inactive: 0.147.
GOLGA5 (UniProt Q8TBA6) was tested, and the log2 fold change was inactive: 0.021.
With GNE isoform 2 (UniProt Q9Y223) the log2 fold change was inactive: 0.026.
For GNPNAT1 (UniProt Q96EK6), the log2 fold change was inactive: 0.043.
With GLOD4 isoform 2 (UniProt Q9HC38) the log2 fold change was inactive: 0.063.
In the case of GRHPR (UniProt Q9UBQ7), the log2 fold change is reported as inactive: 0.018.
In the case of GPN3 isoform 2 (UniProt Q9UHW5), the log2 fold change is reported as inactive: -0.001.
With GLRX2 isoform 2 (UniProt Q9NS18) the log2 fold change was inactive: 0.04.
With GMPR2 isoform 2 (UniProt Q9P2T1) the log2 fold change was inactive: 0.02.
For GRSF1 (UniProt Q12849), the log2 fold change was inactive: -0.051.
With GRB2 (UniProt P62993) the log2 fold change was inactive: 0.014.

The targets below were run with CCCCN(Cc1ccc(C(=O)NO)cc1)C(=O)Nc1ccccc1 [Nexturastat A] in the same assay as above.
Method in brief: as §1
GPAT3 (UniProt Q53EU6) was tested, and the log2 fold change was inactive: 0.082.
GK (UniProt P32189) was tested, and the log2 fold change was inactive: -0.089.
With GLYR1 (UniProt Q49A26) the log2 fold change was active: 0.375.
In the case of GPATCH11 (UniProt Q8N954), the log2 fold change is reported as inactive: 0.042.
GPKOW (UniProt Q92917) was tested, and the log2 fold change was inactive: -0.106.
With GNB1 (UniProt P62873) the log2 fold change was inactive: -0.031.
GINS1 (UniProt Q14691) was tested, and the log2 fold change was inactive: 0.023.
With GNB2 (UniProt P62879) the log2 fold change was inactive: -0.023.
GNAI2 isoform 4 (UniProt P04899) was tested, and the log2 fold change was inactive: -0.022.
With GPALPP1 (UniProt Q8IXQ4) the log2 fold change was inactive: 0.012.
In the case of GMPPB isoform 2 (UniProt Q9Y5P6), the log2 fold change is reported as inactive: -0.108.
In the case of GNB4 (UniProt Q9HAV0), the log2 fold change is reported as inactive: 0.033.
For GPHN isoform 2 (UniProt Q9NQX3), the log2 fold change was inactive: -0.044.
In the case of GNL1 (UniProt P36915), the log2 fold change is reported as inactive: -0.031.
GSK3A (UniProt P49840) was tested, and the log2 fold change was inactive: -0.094.
With GPAT4 (UniProt Q86UL3) the log2 fold change was inactive: -0.004.
In the case of GIPC1 (UniProt O14908), the log2 fold change is reported as inactive: 0.044.
For GNB1L (UniProt Q9BYB4), the log2 fold change was inactive: -0.015.
GMNN (UniProt O75496) was tested, and the log2 fold change was inactive: -0.036.
In the case of GMDS (UniProt O60547), the log2 fold change is reported as inactive: -0.085.
With GPS1 isoform 7 (UniProt Q13098) the log2 fold change was inactive: -0.088.
For GINS4 (UniProt Q9BRT9), the log2 fold change was inactive: 0.05.
With GM2A (UniProt P17900) the log2 fold change was inactive: -0.031.
For GLRX5 (UniProt Q86SX6), the log2 fold change was inactive: -0.007.
For GINS3 (UniProt Q9BRX5), the log2 fold change was inactive: -0.097.
With GNPDA1 (UniProt P46926) the log2 fold change was inactive: -0.155.
For GMEB2 (UniProt Q9UKD1), the log2 fold change was inactive: 0.09.
In the case of GPN1 isoform 5 (UniProt Q9HCN4), the log2 fold change is reported as inactive: -0.013.
For GPR89A (UniProt B7ZAQ6), the log2 fold change was inactive: -0.031.
GINS2 (UniProt Q9Y248) was tested, and the log2 fold change was inactive: 0.174.
With GOLGA5 (UniProt Q8TBA6) the log2 fold change was inactive: 0.02.
In the case of GNE isoform 2 (UniProt Q9Y223), the log2 fold change is reported as inactive: -0.129.
With GNPNAT1 (UniProt Q96EK6) the log2 fold change was inactive: -0.082.
GLOD4 isoform 2 (UniProt Q9HC38) was tested, and the log2 fold change was inactive: -0.085.
In the case of GRHPR (UniProt Q9UBQ7), the log2 fold change is reported as inactive: -0.123.
With GPN3 isoform 2 (UniProt Q9UHW5) the log2 fold change was inactive: -0.051.
GLRX2 isoform 2 (UniProt Q9NS18) was tested, and the log2 fold change was inactive: -0.025.
GMPR2 isoform 2 (UniProt Q9P2T1) was tested, and the log2 fold change was inactive: -0.098.
In the case of GRSF1 (UniProt Q12849), the log2 fold change is reported as inactive: 0.336.
With GRB2 (UniProt P62993) the log2 fold change was inactive: -0.005.
